According to PMC8274477:
No constants are given. Whether binding was seen depends on the method and setting. Some entries that bind do so weakly or less than the wild type.

Chains of the proteins cited; added tags and fusions are not shown.
UniProt Q9BYN0: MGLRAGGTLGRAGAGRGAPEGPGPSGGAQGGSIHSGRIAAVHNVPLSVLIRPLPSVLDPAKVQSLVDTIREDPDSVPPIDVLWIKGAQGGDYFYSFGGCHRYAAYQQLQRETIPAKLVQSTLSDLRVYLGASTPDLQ

How the values were obtained:
Assay in all cases: peptide or protein array; HuProt human proteome microarray; 5 ug/5 ml biotin-labelled LUBAC or OTULIN in solution, 1 h at room temperature; Cy5-streptavidin, scanned at 635 nm; BSA as negative control; hits: Z-score >= 3 and I_(Mean_Ratio) >= 1.4; both purified
[1] = biological target: T1, DTX2 (human) (UniProt Q86UW9)
T1 sequence: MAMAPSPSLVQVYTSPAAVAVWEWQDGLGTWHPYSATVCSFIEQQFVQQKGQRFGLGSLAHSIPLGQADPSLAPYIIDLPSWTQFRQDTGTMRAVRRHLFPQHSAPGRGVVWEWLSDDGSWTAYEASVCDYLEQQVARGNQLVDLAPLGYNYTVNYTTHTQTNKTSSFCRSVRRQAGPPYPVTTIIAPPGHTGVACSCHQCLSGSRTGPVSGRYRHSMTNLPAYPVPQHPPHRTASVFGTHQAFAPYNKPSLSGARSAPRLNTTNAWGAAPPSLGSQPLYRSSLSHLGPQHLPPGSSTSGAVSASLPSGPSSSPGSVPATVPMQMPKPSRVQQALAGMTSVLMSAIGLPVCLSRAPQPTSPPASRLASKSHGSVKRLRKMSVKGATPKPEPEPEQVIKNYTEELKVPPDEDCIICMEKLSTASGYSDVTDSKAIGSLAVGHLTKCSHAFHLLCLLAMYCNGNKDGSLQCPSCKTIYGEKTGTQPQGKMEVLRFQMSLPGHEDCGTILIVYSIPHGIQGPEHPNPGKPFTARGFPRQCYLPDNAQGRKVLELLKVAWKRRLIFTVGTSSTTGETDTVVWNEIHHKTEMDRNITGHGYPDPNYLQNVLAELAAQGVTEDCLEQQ

[2] = biological target: T2, TK1 (human) (UniProt P04183)
T2 sequence: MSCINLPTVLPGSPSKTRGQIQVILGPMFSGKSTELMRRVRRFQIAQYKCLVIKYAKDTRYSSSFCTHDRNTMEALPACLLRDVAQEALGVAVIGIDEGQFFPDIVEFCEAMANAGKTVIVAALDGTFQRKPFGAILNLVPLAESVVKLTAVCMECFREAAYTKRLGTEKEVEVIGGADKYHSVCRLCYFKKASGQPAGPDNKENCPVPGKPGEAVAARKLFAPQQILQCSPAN

[3] = biological target: SRXN1 (human) (UniProt Q9BYN0)
[4] = biological target: T3, IVD (human) (UniProt P26440)
T3 sequence: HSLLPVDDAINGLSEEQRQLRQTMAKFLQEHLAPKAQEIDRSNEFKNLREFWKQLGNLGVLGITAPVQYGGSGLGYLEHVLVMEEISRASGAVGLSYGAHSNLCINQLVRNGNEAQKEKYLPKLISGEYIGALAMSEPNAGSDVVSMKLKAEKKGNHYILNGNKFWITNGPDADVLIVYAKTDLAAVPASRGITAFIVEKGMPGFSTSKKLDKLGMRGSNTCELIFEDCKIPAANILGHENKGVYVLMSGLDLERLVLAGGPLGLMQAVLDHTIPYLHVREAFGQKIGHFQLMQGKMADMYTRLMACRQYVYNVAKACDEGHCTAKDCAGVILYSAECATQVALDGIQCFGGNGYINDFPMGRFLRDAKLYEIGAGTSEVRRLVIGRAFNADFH

[5] = biological target: T4, PRAM1 (human) (UniProt Q96QH2)
T4 sequence: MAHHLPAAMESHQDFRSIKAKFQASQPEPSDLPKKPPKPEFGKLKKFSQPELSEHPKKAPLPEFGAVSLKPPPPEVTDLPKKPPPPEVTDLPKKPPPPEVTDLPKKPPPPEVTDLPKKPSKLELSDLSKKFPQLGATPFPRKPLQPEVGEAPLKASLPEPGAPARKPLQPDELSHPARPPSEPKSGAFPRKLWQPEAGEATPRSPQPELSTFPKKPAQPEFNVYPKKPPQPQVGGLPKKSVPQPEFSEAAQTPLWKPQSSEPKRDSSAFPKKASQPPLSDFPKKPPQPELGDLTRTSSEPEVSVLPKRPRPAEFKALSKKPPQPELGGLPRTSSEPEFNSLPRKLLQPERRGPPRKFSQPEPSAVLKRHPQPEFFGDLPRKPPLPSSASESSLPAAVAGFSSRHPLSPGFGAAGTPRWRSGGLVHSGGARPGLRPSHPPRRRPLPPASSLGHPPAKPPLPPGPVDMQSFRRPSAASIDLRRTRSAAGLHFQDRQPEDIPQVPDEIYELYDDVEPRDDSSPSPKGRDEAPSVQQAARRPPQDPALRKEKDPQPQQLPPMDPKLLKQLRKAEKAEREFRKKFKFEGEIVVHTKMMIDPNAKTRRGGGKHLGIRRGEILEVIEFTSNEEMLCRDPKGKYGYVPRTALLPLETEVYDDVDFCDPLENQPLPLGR

[6] = biological target: T5, TST (human) (UniProt Q16762)
T5 sequence: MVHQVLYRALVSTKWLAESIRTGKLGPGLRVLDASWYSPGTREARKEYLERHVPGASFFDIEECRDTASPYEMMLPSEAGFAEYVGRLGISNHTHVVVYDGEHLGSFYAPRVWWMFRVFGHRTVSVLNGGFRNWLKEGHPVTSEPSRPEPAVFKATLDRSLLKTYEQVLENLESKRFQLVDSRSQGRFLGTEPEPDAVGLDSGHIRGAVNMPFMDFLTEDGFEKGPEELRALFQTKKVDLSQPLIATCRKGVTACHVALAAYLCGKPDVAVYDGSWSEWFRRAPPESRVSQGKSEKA

Measured: binding

linear ubiquitin chain assembly complex (LUBAC), purified as HIS-tagged HOIP with the subunit HOIL-1, biotin-labelled (from UniProt Q96EP0 1-1072; Q9BYM8 1-510)
binds: all assays above
